From US20090175872A1, “Treatment of Conditions Involving Demyelination” (BIOGEN Idec MA Inc., priority 2005, published 2009)
No constants are given. Whether binding was seen depends on the method and setting. Binding seen in cells or lysates may run through a third protein. Some entries that bind do so weakly or less than the wild type.

Amino acid sequences for entries named in this document (tags omitted). A change or cut given only in a name is not applied to a line headed by its entry. Chains listed by the source or under a name are the forms on record and can include a tag or linker. Residues count along the entry.
UniProt P06494, residues 23-1257: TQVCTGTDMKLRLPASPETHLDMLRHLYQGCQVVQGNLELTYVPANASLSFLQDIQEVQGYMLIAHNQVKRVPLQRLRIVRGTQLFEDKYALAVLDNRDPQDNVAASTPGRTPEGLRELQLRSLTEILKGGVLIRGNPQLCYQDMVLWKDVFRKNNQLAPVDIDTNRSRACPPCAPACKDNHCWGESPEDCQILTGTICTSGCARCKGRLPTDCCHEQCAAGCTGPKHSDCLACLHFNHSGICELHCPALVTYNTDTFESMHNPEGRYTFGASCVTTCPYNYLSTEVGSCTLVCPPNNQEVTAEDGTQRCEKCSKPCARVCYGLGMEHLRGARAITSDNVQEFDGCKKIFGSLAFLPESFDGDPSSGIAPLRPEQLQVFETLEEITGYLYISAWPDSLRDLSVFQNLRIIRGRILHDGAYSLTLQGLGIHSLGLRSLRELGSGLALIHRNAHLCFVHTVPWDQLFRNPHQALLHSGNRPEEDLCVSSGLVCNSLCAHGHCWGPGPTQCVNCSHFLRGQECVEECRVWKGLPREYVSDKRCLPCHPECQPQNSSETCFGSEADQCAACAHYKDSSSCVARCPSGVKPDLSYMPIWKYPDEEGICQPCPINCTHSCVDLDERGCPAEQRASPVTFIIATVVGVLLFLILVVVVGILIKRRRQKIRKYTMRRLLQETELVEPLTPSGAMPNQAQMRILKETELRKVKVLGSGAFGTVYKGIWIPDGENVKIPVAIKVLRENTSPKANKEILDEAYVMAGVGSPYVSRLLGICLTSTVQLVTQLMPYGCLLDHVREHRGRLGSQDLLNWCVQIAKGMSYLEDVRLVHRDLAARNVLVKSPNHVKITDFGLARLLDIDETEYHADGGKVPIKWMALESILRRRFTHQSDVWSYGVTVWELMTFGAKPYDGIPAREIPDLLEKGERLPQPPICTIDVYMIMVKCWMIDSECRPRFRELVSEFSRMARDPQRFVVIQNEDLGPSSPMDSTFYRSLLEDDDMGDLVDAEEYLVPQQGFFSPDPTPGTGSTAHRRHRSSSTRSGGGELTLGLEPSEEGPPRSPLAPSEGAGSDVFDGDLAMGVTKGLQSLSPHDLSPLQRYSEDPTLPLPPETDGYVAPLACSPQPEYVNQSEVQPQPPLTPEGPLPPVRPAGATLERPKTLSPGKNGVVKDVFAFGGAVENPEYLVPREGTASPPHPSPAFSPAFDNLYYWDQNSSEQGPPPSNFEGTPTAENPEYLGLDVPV
rat Sp35 (endogenous, oligodendrocytes, cortex and spinal cord tissue) (A0A8I5ZPI2, form named): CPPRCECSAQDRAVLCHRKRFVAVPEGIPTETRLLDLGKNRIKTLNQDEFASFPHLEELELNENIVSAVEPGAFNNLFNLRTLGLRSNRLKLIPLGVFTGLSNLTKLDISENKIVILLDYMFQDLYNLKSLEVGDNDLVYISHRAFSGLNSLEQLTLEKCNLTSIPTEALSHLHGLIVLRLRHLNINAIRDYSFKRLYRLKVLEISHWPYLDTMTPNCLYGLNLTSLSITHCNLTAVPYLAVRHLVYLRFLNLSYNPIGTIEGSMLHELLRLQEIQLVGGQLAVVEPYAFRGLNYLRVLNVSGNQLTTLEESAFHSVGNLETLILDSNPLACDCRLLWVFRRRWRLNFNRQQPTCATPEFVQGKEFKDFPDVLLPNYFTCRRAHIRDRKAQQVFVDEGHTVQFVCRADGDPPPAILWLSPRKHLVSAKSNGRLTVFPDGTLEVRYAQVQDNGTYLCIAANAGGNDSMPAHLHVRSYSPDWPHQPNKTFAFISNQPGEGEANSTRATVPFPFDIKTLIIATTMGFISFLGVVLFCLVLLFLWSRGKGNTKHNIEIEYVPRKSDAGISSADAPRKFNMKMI

Experiments:
[1] = target: rat ErbB2 (endogenous, oligodendrocytes and spinal cord tissue) (rat) (UniProt P06494); test: co-immunoprecipitation from oligodendrocyte lysates
[2] = target: rat ErbB2 (endogenous, oligodendrocytes and spinal cord tissue) (rat) (UniProt P06494); test: co-immunoprecipitation from lysates of O4+ oligodendrocytes and spinal cord tissue

binding [1]: binds
binding [2]: binds
Substance: rat Sp35 (endogenous, oligodendrocytes, cortex and spinal cord tissue) (from UniProt A0A8I5ZPI2 36-614) (receptor)
